Measurements reported in patent US20020099177A1 (Human Genome Sciences, published 2002).

Biological target: TRAF2 (Flag-TRAF2)
Assay: coimmunoprecipitation, coexpressed in 293T cells

binding: no binding
B1: IRAK-2 (IRAK-2α; IRAK-2-MyC expression construct) (enzyme, not shown: small tags and cut ends)
chain: MACYIYQLPSWVLDDLCRNMDALSEWDWMEFASYVITDLTQLRKIKSMERVQGVSITRELLWWWGMRQATVQQLVDLLCRLELYRAAQIILNWKPAPEIRCPIPAFPDSVKPEKPLAASVRKAEDEQEEGQPVRMATFPGPGSSPARAHQPAFLQPPEEDAPHSLRSDLPTSSDSKDFSTSIPKQEKLLSLAGDSLFWSEADVVQATDDFNQNRKISQGTFADVYRGHRHGKPFVFKKLRETACSSPGSIERFFQAELQICLRCCHPNVLPVLGFCAARQFHSFIYPYMANGSLQDRLQGQGGSEPLPWPQRVSICSGLLCAVEYLHGLEIIHSNVKSSNVLLDQNLTPKLAHPMAHLCPVNKRSKYTMMKTHLLRTSAAYLPEDFIRVGQLTKRVDIFSCGIVLAEVLTGIPAMDNNRSPVYLKDLLLSEIPSSTASLCSRKTGVENVMAKEICQKYLEKGAGRLPEDCAEALATAACLCLRRRNTSLQEVCGSVAAVEERLRGRETLLPWSGLSEGTGSSSNTPEETDDVDNSSLDASSSMSVAPWAGAATPLLPTENGEGRLRVIVGREADSSSEACVGLEPPQDVT

These are yes or no findings as the source states them, for the method shown. In cells and extracts the contact can be indirect. Sequences can lack the tags named with a protein.
